In the supplement of paper PMC10849652:
The other results are listed elsewhere or left out. Residues, ends and D or L forms follow the SMILES beside them. *: point of attachment. Cbz = O=C(OCc1ccccc1)*

Amino acid sequences for entries named in this document (tags omitted). A change or cut given only in a name is not applied to a line headed by its entry.
UniProt P20810: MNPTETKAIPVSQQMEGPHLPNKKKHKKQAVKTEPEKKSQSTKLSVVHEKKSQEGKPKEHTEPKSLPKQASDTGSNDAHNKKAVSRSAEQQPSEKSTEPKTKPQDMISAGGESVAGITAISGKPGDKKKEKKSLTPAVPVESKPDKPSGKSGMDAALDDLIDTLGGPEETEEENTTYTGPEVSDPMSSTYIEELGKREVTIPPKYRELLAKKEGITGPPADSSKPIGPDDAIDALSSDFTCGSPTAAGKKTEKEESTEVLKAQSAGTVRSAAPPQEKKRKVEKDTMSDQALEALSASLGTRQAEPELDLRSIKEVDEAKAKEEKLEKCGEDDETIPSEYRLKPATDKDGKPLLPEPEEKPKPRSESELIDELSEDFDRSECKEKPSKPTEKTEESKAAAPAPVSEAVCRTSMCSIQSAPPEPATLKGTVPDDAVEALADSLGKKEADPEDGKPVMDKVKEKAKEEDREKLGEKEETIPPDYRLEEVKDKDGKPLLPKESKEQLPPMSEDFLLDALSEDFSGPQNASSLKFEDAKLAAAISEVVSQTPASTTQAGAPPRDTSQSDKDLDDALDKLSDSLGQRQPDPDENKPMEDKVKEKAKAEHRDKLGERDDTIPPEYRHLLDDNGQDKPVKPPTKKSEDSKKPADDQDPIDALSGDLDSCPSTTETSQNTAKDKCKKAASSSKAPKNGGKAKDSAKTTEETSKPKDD
UniProt P55212: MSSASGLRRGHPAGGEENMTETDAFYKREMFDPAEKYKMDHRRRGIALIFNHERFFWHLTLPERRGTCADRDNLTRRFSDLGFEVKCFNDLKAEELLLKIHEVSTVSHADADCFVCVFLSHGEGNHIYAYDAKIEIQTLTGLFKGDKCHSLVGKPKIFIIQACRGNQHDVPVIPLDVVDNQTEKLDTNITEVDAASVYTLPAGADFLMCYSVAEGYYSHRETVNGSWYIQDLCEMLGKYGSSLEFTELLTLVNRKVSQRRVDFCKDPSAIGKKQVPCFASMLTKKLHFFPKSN
UniProt O60826, whole entry, looked up: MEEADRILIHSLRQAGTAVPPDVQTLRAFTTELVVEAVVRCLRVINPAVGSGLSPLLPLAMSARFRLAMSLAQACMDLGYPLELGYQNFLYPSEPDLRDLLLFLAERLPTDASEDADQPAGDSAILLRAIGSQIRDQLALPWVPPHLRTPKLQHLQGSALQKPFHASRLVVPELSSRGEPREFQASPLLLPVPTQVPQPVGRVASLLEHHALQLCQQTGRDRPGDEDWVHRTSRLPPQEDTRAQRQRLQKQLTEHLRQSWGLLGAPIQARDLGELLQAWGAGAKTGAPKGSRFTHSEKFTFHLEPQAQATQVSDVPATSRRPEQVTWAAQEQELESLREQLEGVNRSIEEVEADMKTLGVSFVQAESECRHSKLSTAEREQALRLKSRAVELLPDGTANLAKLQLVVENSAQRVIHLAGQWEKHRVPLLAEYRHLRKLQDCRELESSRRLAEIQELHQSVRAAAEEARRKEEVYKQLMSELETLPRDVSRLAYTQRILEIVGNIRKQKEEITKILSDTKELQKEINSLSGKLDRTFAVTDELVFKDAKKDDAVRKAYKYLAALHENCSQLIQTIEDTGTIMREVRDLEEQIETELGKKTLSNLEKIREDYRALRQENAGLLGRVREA
UniProt Q8N4J0: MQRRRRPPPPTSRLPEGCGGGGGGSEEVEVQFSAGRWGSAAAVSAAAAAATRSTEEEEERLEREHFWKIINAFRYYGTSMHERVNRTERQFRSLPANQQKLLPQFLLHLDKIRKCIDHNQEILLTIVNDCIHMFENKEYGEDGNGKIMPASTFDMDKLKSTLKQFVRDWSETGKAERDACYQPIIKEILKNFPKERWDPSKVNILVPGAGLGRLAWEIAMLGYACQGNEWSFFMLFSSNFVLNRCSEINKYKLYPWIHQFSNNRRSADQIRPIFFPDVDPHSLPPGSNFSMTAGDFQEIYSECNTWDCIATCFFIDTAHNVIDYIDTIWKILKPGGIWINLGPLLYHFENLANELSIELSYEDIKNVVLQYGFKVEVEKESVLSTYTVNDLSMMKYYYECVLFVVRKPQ
UniProt Q6PII3: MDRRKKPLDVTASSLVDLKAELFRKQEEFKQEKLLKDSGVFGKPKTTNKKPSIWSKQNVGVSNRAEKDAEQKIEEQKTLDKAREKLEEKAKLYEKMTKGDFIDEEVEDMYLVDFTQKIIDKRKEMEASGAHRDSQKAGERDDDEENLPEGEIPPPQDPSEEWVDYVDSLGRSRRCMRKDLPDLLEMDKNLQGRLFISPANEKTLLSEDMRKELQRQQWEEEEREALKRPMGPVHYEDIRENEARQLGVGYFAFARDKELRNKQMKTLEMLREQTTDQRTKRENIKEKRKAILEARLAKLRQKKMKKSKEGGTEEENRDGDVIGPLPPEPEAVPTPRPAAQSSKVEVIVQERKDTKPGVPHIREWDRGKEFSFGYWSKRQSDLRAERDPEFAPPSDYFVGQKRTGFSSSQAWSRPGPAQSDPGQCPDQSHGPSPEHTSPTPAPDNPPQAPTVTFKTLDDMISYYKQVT
UniProt Q4G0I0: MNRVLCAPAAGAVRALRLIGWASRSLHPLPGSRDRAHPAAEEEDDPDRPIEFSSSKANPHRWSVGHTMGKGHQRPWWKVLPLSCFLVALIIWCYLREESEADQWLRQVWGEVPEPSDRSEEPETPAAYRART
UniProt O15446, whole entry, looked up: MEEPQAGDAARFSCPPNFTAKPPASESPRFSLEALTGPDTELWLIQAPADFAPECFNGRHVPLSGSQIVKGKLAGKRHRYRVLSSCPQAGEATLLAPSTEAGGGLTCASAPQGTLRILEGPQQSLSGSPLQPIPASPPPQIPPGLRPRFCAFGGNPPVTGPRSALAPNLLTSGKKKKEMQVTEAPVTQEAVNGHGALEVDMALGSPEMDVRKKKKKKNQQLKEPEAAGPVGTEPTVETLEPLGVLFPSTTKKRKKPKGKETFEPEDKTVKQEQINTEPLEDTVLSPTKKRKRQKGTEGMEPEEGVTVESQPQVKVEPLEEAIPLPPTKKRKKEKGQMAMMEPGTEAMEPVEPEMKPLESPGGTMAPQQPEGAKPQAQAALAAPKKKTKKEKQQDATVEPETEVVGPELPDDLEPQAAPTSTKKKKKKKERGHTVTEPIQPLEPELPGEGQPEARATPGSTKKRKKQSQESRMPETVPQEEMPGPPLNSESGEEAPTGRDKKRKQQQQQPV
UniProt Q96A33: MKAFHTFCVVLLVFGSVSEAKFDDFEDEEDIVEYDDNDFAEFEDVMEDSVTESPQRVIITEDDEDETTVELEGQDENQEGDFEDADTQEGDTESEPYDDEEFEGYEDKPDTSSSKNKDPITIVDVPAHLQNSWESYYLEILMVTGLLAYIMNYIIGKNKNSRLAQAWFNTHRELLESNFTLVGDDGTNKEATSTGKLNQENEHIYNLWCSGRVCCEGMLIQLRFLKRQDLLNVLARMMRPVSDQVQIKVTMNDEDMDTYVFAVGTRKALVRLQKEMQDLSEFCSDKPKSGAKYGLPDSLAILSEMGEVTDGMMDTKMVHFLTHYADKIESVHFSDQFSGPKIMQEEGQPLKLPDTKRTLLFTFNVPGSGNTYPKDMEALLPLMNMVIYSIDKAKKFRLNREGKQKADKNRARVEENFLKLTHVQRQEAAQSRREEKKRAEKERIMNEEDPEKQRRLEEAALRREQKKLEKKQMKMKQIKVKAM
UniProt Q4VC31: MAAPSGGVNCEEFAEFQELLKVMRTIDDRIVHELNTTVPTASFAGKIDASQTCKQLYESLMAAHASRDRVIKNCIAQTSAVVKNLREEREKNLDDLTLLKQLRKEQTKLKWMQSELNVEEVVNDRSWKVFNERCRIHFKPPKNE
UniProt P50990: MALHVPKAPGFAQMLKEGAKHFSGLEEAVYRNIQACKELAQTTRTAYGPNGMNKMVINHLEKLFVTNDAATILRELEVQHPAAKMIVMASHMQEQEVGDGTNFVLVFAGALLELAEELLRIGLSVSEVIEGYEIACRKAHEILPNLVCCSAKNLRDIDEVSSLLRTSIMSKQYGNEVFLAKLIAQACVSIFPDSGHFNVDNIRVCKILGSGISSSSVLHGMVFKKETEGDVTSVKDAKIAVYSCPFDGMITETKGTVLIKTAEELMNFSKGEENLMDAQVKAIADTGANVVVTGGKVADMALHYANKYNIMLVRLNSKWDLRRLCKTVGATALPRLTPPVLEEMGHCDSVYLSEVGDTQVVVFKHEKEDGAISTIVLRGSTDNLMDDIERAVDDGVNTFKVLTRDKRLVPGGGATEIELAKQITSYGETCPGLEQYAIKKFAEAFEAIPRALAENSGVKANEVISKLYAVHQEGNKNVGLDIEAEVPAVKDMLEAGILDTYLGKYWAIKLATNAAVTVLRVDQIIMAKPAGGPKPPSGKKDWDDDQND
UniProt Q8N163, whole entry, looked up: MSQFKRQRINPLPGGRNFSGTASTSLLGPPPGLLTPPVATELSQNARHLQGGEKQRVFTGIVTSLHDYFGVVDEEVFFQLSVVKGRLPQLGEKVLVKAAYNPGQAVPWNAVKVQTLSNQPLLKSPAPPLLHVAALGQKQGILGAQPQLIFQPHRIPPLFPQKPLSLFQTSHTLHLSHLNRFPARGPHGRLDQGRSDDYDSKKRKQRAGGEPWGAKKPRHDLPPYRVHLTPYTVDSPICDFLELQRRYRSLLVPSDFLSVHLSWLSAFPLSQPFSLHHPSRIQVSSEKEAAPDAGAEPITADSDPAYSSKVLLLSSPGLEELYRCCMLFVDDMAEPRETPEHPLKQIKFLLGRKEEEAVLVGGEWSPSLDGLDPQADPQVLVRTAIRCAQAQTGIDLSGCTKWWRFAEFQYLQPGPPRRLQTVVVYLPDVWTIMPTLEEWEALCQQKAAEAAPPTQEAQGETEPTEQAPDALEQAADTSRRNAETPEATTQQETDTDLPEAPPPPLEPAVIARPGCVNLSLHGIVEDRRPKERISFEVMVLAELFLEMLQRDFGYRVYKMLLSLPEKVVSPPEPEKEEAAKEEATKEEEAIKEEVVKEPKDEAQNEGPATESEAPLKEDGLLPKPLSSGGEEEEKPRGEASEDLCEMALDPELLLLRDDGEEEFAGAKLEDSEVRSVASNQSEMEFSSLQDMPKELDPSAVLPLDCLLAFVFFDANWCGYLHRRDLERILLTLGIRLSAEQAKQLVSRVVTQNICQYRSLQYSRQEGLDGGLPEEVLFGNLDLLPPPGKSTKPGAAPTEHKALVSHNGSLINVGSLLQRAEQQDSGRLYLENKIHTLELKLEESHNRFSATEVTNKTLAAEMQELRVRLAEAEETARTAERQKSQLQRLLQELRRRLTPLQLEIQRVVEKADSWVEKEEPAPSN
UniProt Q9Y5K6, whole entry, looked up: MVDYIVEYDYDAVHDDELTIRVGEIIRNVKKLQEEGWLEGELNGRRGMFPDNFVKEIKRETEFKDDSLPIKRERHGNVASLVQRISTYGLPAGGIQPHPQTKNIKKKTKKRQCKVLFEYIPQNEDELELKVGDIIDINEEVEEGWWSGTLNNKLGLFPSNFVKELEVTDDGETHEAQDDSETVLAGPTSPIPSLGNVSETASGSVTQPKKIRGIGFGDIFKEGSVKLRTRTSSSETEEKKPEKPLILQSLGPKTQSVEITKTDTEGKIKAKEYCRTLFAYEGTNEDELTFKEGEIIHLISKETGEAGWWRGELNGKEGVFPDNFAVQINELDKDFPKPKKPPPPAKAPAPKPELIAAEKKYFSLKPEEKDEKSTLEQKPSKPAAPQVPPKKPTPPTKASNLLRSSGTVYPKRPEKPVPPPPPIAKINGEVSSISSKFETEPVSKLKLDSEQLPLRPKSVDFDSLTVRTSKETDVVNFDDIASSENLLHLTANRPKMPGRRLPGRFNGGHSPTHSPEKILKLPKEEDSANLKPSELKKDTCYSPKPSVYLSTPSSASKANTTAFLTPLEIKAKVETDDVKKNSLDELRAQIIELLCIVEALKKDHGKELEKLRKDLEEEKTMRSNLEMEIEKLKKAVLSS
UniProt Q86X55: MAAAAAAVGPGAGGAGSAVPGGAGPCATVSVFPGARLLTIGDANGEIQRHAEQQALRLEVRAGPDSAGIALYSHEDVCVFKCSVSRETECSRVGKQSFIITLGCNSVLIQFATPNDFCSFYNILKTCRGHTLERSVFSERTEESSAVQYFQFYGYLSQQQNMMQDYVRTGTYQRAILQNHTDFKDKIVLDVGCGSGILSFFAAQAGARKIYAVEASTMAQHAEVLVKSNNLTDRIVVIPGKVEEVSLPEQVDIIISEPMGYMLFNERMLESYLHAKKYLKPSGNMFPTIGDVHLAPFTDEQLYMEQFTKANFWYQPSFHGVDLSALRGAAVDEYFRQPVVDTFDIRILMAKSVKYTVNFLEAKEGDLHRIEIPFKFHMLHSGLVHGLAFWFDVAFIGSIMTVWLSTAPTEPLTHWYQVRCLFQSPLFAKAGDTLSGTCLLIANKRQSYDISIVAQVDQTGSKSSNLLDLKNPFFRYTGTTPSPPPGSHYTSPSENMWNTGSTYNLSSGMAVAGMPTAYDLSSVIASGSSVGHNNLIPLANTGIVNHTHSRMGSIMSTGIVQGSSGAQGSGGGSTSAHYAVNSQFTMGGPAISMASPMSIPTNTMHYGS

Experiments:
Assay in all cases: log2 fold change, soluble protein after heating vs DMSO (PISA); higher = thermal stabilisation; K562 cells, 10 uM, 30 min; active = over 0.2 and 3.5 SD of the protein, either way, in both replicates (recomputed)
IRAK-1-4 Inhibitor I = compound: C1COCCN1CCN2C3=CC=CC=C3N=C2NC(=O)C4=CC(=CC=C4)[N+](=O)[O-] [IRAK-1-4 Inhibitor I]
How it was run: (§1)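 K562 cells at 2×10^6 cells/mL were treated with 10 μM compound for 30 min. Aliquots were heated for 3 min across 48°C-58°C, pooled, and extracted in PBS with 0.5% NP-40 at 4°C; soluble protein was the supernatant after 21,000xg for 90 min. Soluble protein was quantified by TMTpro 16plex LC-MS/MS with channel sums equalised, and reported as log2 fold change in thermal stability against DMSO controls, with values from duplicates.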

ibrutinib = compound: C=CC(=O)N1CCC[C@@H](n2nc(-c3ccc(Oc4ccccc4)cc3)c3c(N)ncnc32)C1 [ibrutinib]
How it was run: as §1

[1] = compound: CC(=O)c1cnc2ccc(-c3cc(Cl)c(O)c(Cl)c3)nc2c1N[C@H]1CC[C@H](CN(C)C)CC1
How it was run: as §1

ralimetinib = compound: CC(C)(C)Cn1c(N)nc2ccc(-c3[nH]c(C(C)(C)C)nc3-c3ccc(F)cc3)nc21 [ralimetinib]
How it was run: as §1

[2] = compound: CC(C)(O)CC(=O)NCCn1ccc2ncnc(Nc3ccc(Oc4cccc(C(F)(F)F)c4)c(Cl)c3)c21
How it was run: as §1

[3] = compound: CC(C)C1=C2N=C(C=C(N2N=C1)NCC3=CC=CC=C3)NCCCCCCN
How it was run: as §1

[4] = compound: CC(C)C[C@@H](C=O)NC(=O)[C@H](CC(C)C)NC(=O)[C@H](CC(C)C)NC(=O)OCc1ccccc1
How it was run: as §1

pinometostat = compound: CC(C)N(C[C@H]1O[C@@H](n2cnc3c(N)ncnc32)[C@H](O)[C@@H]1O)[C@H]1C[C@@H](CCc2nc3cc(C(C)(C)C)ccc3[nH]2)C1 [pinometostat]
How it was run: as §1

[5] = compound: CC1=C(C(CC(=O)N1)C2=CC=C(C=C2)C(F)(F)F)C(=O)NC3=C(C=C4C(=C3)C=NN4)F
How it was run: as §1

[6] = compound: CC1=C(C2=C(C=C1)C(=O)C3=CC=CC=C3N2CCCN)C
How it was run: as §1

[7] = compound: CC1=C(C=C(C=C1)NC(=O)C2=CC(=CC=C2)C(C)(C)C#N)NC3=CC4=C(C=C3)N=CN(C4=O)C
How it was run: as §1

[8] = compound: CC1=C(C=C(C=C1)NC(=O)C2=CC(=CC=C2)N(C)C)NC(=O)C3=CC=C(C=C3)O
How it was run: as §1

[9] = compound: CC1=CC=C(C=C1)SC2=C3C=C(SC3=CN=C2)C(=O)N
How it was run: as §1

[10] = compound: CC1=NC(=CC=C1)C2=C(N=C(N2)C(C)(C)C)C3=CC4=NC=CN=C4C=C3
How it was run: as §1

Nexturastat A = compound: CCCCN(Cc1ccc(C(=O)NO)cc1)C(=O)Nc1ccccc1 [Nexturastat A]
How it was run: as §1

vemurafenib = compound: CCCS(=O)(=O)Nc1ccc(F)c(C(=O)c2c[nH]c3ncc(-c4ccc(Cl)cc4)cc23)c1F [vemurafenib]
How it was run: as §1

[11] = compound: CCCS(=O)(=O)Nc1ccc(F)c(C(=O)c2c[nH]c3ncc(Cl)cc23)c1F
How it was run: as §1

[12] = compound: CCCc1cc(C)[nH]c(=O)c1CNC(=O)c1cc(-c2ccnc(N3CCN(C)CC3)c2)cc2c1cnn2C(C)C
How it was run: as §1

givinostat = compound: CCN(CC)Cc1ccc2cc(COC(=O)Nc3ccc(C(=O)NO)cc3)ccc2c1 [givinostat]
How it was run: as §1

barasertib = compound: CCN(CCCOc1ccc2c(Nc3cc(CC(=O)Nc4cccc(F)c4)[nH]n3)ncnc2c1)CCOP(=O)(O)O [barasertib]
How it was run: as §1

Measured: log2 fold change

CAST isoform 6 (UniProt P20810)
inactive: IRAK-1-4 Inhibitor I 0.034 | ibrutinib 0.021 | [1] -0.009 | ralimetinib -0.053 | [2] -0.02 | [3] 0.092 | [4] 0.045 | pinometostat -0.037 | [5] 0.024 | [6] -0.029 | [7] -0.045 | [8] 0.002 | [9] -0.008 | [10] 0.007 | Nexturastat A -0.071 | vemurafenib -0.023 | [11] -0.031 | [12] 0.181 | givinostat -0.021 | barasertib 0.003

CASP6 (UniProt P55212)
inactive: IRAK-1-4 Inhibitor I 0.035 | ibrutinib 0.027 | [1] 0.044 | ralimetinib 0.003 | [2] -0.019 | [3] 0.073 | [4] -0.028 | pinometostat -0.018 | [5] 0.063 | [6] -0.002 | [7] 0.03 | [8] 0.027 | [9] 0.013 | [10] 0.034 | Nexturastat A -0.026 | vemurafenib -0.01 | [11] -0.005 | [12] -0.057 | givinostat -0.041 | barasertib 0.003

CBL (UniProt P22681)
inactive: IRAK-1-4 Inhibitor I -0.009 | ibrutinib 0.027 | [1] -0.067 | ralimetinib 0.021 | [2] 0.006 | [3] 0.035 | [4] -0.002 | pinometostat -0.07 | [5] -0.041 | [6] 0.006 | [7] 0.038 | [8] 0.015 | [9] 0.005 | [10] 0.019 | Nexturastat A -0.038 | vemurafenib 0.002 | [11] 0.018 | [12] 0.021 | givinostat -0.015 | barasertib 0.018

CCDC22 (UniProt O60826)
inactive: IRAK-1-4 Inhibitor I -0.006 | ibrutinib 0.013 | [1] 0.004 | ralimetinib 0.102 | [2] -0.003 | [3] -0.041 | [4] 0.079 | pinometostat 0.12 | [5] 0.252 | [6] 0.083 | [7] 0.005 | [8] -0.05 | [9] 0.025 | [10] 0.008 | Nexturastat A 0.025 | vemurafenib -0.019 | [11] 0.05 | [12] 0.045 | givinostat 0.042 | barasertib 0.062

CARNMT1 (UniProt Q8N4J0)
inactive: IRAK-1-4 Inhibitor I 0.022 | ibrutinib 0.006 | [1] -0.054 | ralimetinib -0.023 | [2] -0.063 | [3] -0.036 | [4] -0.02 | pinometostat -0.016 | [5] -0.059 | [6] 0.045 | [7] 0.031 | [8] -0.033 | [9] 0.022 | [10] -0.002 | Nexturastat A -0.117 | vemurafenib 0.036 | [11] 0.094 | [12] 0.064 | givinostat -0.033 | barasertib 0.027

CCDC174 (UniProt Q6PII3)
inactive: IRAK-1-4 Inhibitor I 0.078 | ibrutinib 0.026 | [1] -0.009 | ralimetinib -0.003 | [2] 0.071 | [3] 0.068 | [4] -0.042 | pinometostat 0.026 | [5] 0.049 | [6] -0.154 | [7] -0.026 | [8] -0.073 | [9] -0.033 | [10] -0.043 | Nexturastat A -0.095 | vemurafenib -0.041 | [11] -0.083 | [12] 0.063 | givinostat 0.013 | barasertib -0.042

Copied from the results shown (2 entries):
CCDC22 (UniProt O60826)
inactive: IRAK-1-4 Inhibitor I -0.006 | ibrutinib 0.013 | [1] 0.004 | ralimetinib 0.102 | [2] -0.003 | [3] -0.041 | [4] 0.079 | pinometostat 0.12 | [5] 0.252 | [6] 0.083 | [7] 0.005 | [8] -0.05 | [9] 0.025 | [10] 0.008 | Nexturastat A 0.025 | vemurafenib -0.019 | [11] 0.05 | [12] 0.045 | givinostat 0.042 | barasertib 0.062

CARNMT1 (UniProt Q8N4J0)
inactive: IRAK-1-4 Inhibitor I 0.022 | ibrutinib 0.006 | [1] -0.054 | ralimetinib -0.023 | [2] -0.063 | [3] -0.036 | [4] -0.02 | pinometostat -0.016 | [5] -0.059 | [6] 0.045 | [7] 0.031 | [8] -0.033 | [9] 0.022 | [10] -0.002 | Nexturastat A -0.117 | vemurafenib 0.036 | [11] 0.094 | [12] 0.064 | givinostat -0.033 | barasertib 0.027

Next part.

CCSMST1 (UniProt Q4G0I0)
inactive: IRAK-1-4 Inhibitor I -0.012 | ibrutinib -0.084 | [1] 0.032 | ralimetinib -0.049 | [2] -0.007 | [3] 0.074 | [4] 0.113 | pinometostat 0 | [5] -0.027 | [6] 0.133 | [7] 0.107 | [8] -0.062 | [9] 0.059 | [10] 0.008 | Nexturastat A 0.043 | vemurafenib 0.073 | [11] 0.014 | [12] -0.039 | givinostat -0.014 | barasertib 0.021

CCDC137 (UniProt Q6PK04)
inactive: IRAK-1-4 Inhibitor I -0.148 | ibrutinib 0.192 | [1] 0.335 | ralimetinib 0.024 | [2] 0.026 | [3] 0.14 | [4] 0.05 | pinometostat 0.4 | [5] 0.035 | [6] -0.504 | [7] -0.021 | [8] -0.09 | [10] -0.159 | Nexturastat A 0.014 | vemurafenib 0.095 | [12] 0.217 | givinostat 0.051 | barasertib -0.219

CD3EAP isoform 2 (UniProt O15446)
inactive: IRAK-1-4 Inhibitor I -0.12 | ibrutinib -0.003 | [1] -0.025 | ralimetinib 0.117 | [2] 0.084 | [3] 0.054 | [4] 0.085 | pinometostat 0.134 | [5] 0.026 | [6] 0.039 | [7] -0.015 | [8] 0.016 | [9] -0.054 | [10] -0.045 | Nexturastat A 0.186 | vemurafenib -0.044 | [11] -0.015 | [12] 0.01 | givinostat 0.01 | barasertib -0.099

CD46 isoform 2 (UniProt P15529)
inactive: IRAK-1-4 Inhibitor I 0.023 | ibrutinib 0.096 | [1] 0.015 | ralimetinib -0.064 | [2] 0 | [3] 0.13 | [4] 0.025 | pinometostat -0.004 | [5] 0.015 | [6] 0.001 | [7] 0 | [8] -0.035 | [9] 0.048 | [10] -0.023 | Nexturastat A 0.021 | vemurafenib 0.007 | [11] -0.036 | [12] 0.013 | givinostat -0.001 | barasertib -0.018

CCDC47 (UniProt Q96A33)
inactive: IRAK-1-4 Inhibitor I 0.009 | ibrutinib -0.013 | [1] -0.013 | ralimetinib -0.036 | [2] -0.146 | [3] -0.089 | [4] 0.07 | pinometostat -0.055 | [5] -0.002 | [6] 0.047 | [7] 0 | [8] 0.021 | [9] 0.045 | [10] 0.07 | Nexturastat A -0.039 | vemurafenib 0.002 | [11] 0.048 | [12] 0.008 | givinostat -0.02 | barasertib 0.012

CCDC58 (UniProt Q4VC31)
inactive: IRAK-1-4 Inhibitor I 0.07 | ibrutinib 0.016 | [1] 0.007 | ralimetinib -0.06 | [2] 0.022 | [3] 0.07 | [4] -0.076 | pinometostat -0.048 | [5] 0.045 | [6] -0.02 | [7] -0.03 | [8] 0.008 | [9] 0.076 | [10] 0.011 | Nexturastat A -0.085 | vemurafenib -0.043 | [11] 0.005 | [12] -0.031 | givinostat -0.035 | barasertib -0.031

CCT8 (UniProt P50990)
inactive: IRAK-1-4 Inhibitor I 0.003 | ibrutinib -0.016 | [1] -0.003 | ralimetinib -0.019 | [2] -0.014 | [3] 0.014 | [4] -0.019 | pinometostat -0.023 | [5] 0.019 | [6] 0.02 | [7] -0.006 | [8] 0.006 | [9] -0.005 | [10] 0.049 | Nexturastat A -0.043 | vemurafenib -0.009 | [11] -0.002 | [12] -0.012 | givinostat 0.011 | barasertib -0.018

CCAR2 isoform 2 (UniProt Q8N163)
active: [3] -0.477
inactive: IRAK-1-4 Inhibitor I -0.111 | ibrutinib -0.061 | [1] -0.037 | ralimetinib 0.027 | [2] -0.222 | [4] -0.004 | pinometostat -0.039 | [6] -0.252 | [7] 0.032 | [8] -0.048 | [9] -0.017 | [10] 0.001 | Nexturastat A 0 | vemurafenib 0.042 | [11] 0.05 | [12] 0.28 | givinostat 0.144 | barasertib 0.026

CD2AP (UniProt Q9Y5K6)
inactive: IRAK-1-4 Inhibitor I 0.038 | ibrutinib -0.013 | [1] -0.056 | ralimetinib -0.042 | [2] -0.012 | [3] 0 | [4] 0.017 | pinometostat -0.017 | [5] -0.019 | [6] 0.025 | [7] -0.016 | [8] 0 | [9] 0.012 | [10] 0.03 | Nexturastat A -0.061 | vemurafenib 0 | [11] 0.022 | [12] -0.01 | givinostat -0.012 | barasertib 0.007

CARM1 (UniProt Q86X55)
inactive: IRAK-1-4 Inhibitor I 0.013 | ibrutinib -0.008 | [1] 0.017 | ralimetinib -0.058 | [2] -0.01 | [3] 0.031 | [4] -0.051 | pinometostat -0.067 | [5] -0.008 | [6] 0.016 | [7] 0.006 | [8] 0.005 | [9] 0.01 | [10] 0.01 | Nexturastat A -0.074 | vemurafenib -0.014 | [11] -0.008 | [12] -0.033 | givinostat -0.018 | barasertib -0.005
